Experimental findings from the supplement of paper PMC3334620 are described below.

Over roughly 33,000 sequences, “E-score (-0.5 to 0.5)” has its median near -0.0034; the highest 2% begin near 0.25. The list shows a part of the results.

The target in this test is T1, Yap3 (UniProt P38749).
T1 sequence: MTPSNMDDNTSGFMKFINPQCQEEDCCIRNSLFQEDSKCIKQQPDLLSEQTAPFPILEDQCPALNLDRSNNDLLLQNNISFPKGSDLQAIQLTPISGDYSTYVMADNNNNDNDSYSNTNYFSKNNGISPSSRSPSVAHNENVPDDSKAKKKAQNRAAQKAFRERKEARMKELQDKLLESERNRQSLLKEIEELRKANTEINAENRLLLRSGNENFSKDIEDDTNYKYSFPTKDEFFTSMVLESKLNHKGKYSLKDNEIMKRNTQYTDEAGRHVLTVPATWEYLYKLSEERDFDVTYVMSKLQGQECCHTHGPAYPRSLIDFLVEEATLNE
The test is described as follows: PBM E-score (8-mer binding enrichment) (E-score (-0.5 to 0.5)); higher = stronger / more preferred TF binding. The note with it: protein concentration: 100 nM; construct: GST-full length. Put shortly: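 Universal all-10-mer Agilent arrays, fresh or stripped once, were converted to double-stranded form by primer extension. GST-tagged yeast transcription factors from PURExpress in vitro transcription/translation, full-length or DNA-binding domain only, were applied at about 100-200 nM and detected with fluorescent anti-GST. After masliner normalisation, the Universal PBM Analysis Suite scored each ungapped eight-base word together with its reverse complement by E-score.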
In the case of AACTTAAA, the “PBM E-score” value stood at 0.12. In the case of ATACTACA, the “PBM E-score” value turned out to be 0.28.

On to ATTGGCCC, for which the “PBM E-score” value is -0.361. In the case of CCGCGGAC it was -0.195; in that of AACACTGT, 0.0465; in that of AATGAGAG, -0.0586. Regarding CAGTAAAG, the “PBM E-score” value was 0.0758. To CGCAGAAA belongs 0.0726; to GGTAGTGA, -0.0469.

On to GGACGACA, for which the “PBM E-score” value is 0.124.

In the case of AACGTTTC, the “PBM E-score” value was 0.0776.

Take CTCTTACC: the “PBM E-score” value was determined as 0.0816. To TCGTCTCA belongs -0.042. As for CCCCCGCG, the “PBM E-score” value was -0.254. As for CAGCAAAA, the “PBM E-score” value came to 0.0978. In the case of GCATTCGA it was 0.145. To CTCCTCTA belongs -0.14; to AAAGCTAC, -0.081; to CACCAACG, -0.0927. To AGTCAGTG belongs -0.00717; to AGGAAACC, -0.101; to ACACGGGG, -0.139. Turning to GACGGAAA, the “PBM E-score” value worked out at 0.212. As to CTTGCCCA, the “PBM E-score” value was -0.0745. In the case of CCGTAAAA it was -0.00748; in that of GGGTAAAA, 0.258. For the sequence AAATTTCG, the “PBM E-score” value turned out to be 0.0725.

Regarding AGCAGCCT, the “PBM E-score” value was -0.17. To GGCCCCCC belongs -0.461. In the case of GAAATAGA it was 0.0646; in that of GAAGTACC, -0.0826.

For GTCTCGCA, the “PBM E-score” value is -0.0565. Turning to CAGTCGTA, the “PBM E-score” value was -0.0883. To AATATCAG belongs 0.121.

Consider ACTATAGT, for which the “PBM E-score” value stood at 0.226. To GTTCGCAA belongs 0.166; to CTGCGGCC, -0.188. To CTGCGGGC belongs -0.235; to CCGATGTA, -0.0164; to CTTCTACC, -0.0153. To ATAGCCAC belongs -0.0162.

For ACATAGGC, the “PBM E-score” value stood at 0.0672. To AGACCGTC belongs -0.195; to CCTCCGCG, -0.136.

Turning to TATAGAAA, the “PBM E-score” value stood at 0.0802. In the case of AAAGTACC it was 0.176; in that of CGCCGGCG, -0.00299.

Turning to CGCTAGAC, the “PBM E-score” value is -0.253. To CATTAAAG belongs 0.0898; to CTTAAAAC, 0.136. To AATCGGGT belongs 0.17; to ACAACACC, 0.0347.

In the case of AGTAACGC, the “PBM E-score” value was -0.0151. To AAACATGC belongs 0.09. To ATTAGCTG belongs 0.0446; to AGCGGGGC, -0.188; to ACCATACG, 0.0626.

With AGCGAATG, the “PBM E-score” value was -0.101. In the case of AAGGCCTG it was -0.151; in that of GGTTTACA, 0.161.

On to ATCCAAAA, for which the “PBM E-score” value turned out to be 0.208. In the case of GCTTCAGA it was -0.0796; in that of CTCATGAG, -0.1.

With GAACTAGC, the “PBM E-score” value was 0.0152.

For the sequence CCATAAGA, the “PBM E-score” value was 0.0674.

In the case of CTGAAATA, the “PBM E-score” value worked out at 0.165. To AACCTTCC belongs -0.0911; to GCGTCACC, -0.173. For CAGAAACG, the “PBM E-score” value turned out to be 0.147. In the case of ATCGAAAA it was 0.124; in that of CGGGCGCA, -0.12.

Take GATGAAAC: the “PBM E-score” value was 0.112. To AAAGTTTA belongs 0.168; to TAATTACA, 0.232. In the case of ACCCGTGA it was -0.117; in that of CACCTTCA, 0.014. In the case of AGCCGCTG it was -0.169. As to AAGGAGGT, the “PBM E-score” value is -0.155. For GGGACCCC, the “PBM E-score” value is -0.334. In the case of CTGCTAAC, the “PBM E-score” value is 0.0329. On to ACCACACC, for which the “PBM E-score” value is -0.111.

Turning to AGCCGCTC, the “PBM E-score” value is -0.0187.

ATATGCGG: the “PBM E-score” value stood at 0.0287.

For the sequence CTCCTCGC, the “PBM E-score” value was -0.173. In the case of AACTCTAG it was 0.0326; in that of AGATCCCT, -0.213; in that of AGGTCGGC, -0.191.

As to CAAGTACC, the “PBM E-score” value is -0.0926. Take ACGGAGTG: the “PBM E-score” value was -0.0637.

On to AGCGCCAT, for which the “PBM E-score” value is -0.148. CACTGTGC: the “PBM E-score” value is 0.0315.

Consider CACAGGGG, for which the “PBM E-score” value was -0.353. As for AATGACGG, the “PBM E-score” value came out at 0.132. Regarding AAAATGAG, the “PBM E-score” value stood at 0.162.
